Laboratory results: PubChem BioAssay AID1688 (National Center for Advancing Translational Sciences (NCATS), 2009)
Screen size: about 220,000 compounds; about 2,400 (1.1%) were called active. This list was built around the results that the source calls inconclusive (neither active nor inactive); the mix of calls is not that of the screen. Calls follow the shape of the dose curve; as a rule, active = well fitted inhibition curve with a large enough effect; inconclusive = small, poorly fitted or top-dose-only effect, or effect the other way; inactive = no such curve, though single readings can be large or run the other way. Where the call is inconclusive, the potency comes from a doubtful curve fit.

Experiment: qHTS Multiplex Assay to Identify Dual Action Probes in a Cell Model of Huntington: Aggregate Formation (GFP); also: nearly all actives have a fitted effect of over 60% in size
Details: PC12 HttQ103-GFP aggregates, Acumen cytometry, 40 h; activity change, negative = inhibition: at 46.1 µM (top of the series) unless noted
How it was run: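 PC12 cells stably carrying ecdysone-inducible HTT exon 1 Q103–GFP were induced with tebufenozide (100 nM final) and treated with library compounds in titration. GFP aggregates in lysates were counted by laser scanning cytometry.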
% is scaled to controls: 0 for no effect and ±100 for the full control effect; potency is read from the fitted curve at half-maximal effect.

Question: With `Brc1cc2c(cc1C1Nc3ccccc3C3C=CCC31)OCO2` (stereo not drawn) as the compound, how does the Potency read?
Answer: inconclusive: 5.62 µM [activator, single point]

Question: For `CCC(C)(C)c1ccc(OCCCC[n+]2ccc(C)cc2)c(C(C)(C)CC)c1`, which Potency is on record?
Answer: active: 17.8 µM

Question: With `COc1ccc(OCCSc2nnc3sc4ccccc4n23)cc1` as the compound, how does the Potency read?
Answer: inconclusive: 20 µM [inhibitor, single point]

Question: For `N#CC1=C(SCc2ccccc2Cl)NC(=O)C(C(N)=O)C1` (stereo not drawn), which “activity change, negative = inhibition” value is on record?
Answer: inactive: -6.62%

Question: For `COc1cccc(C2Nc3c(F)cc(Br)cc3C3C=CCC32)c1OC` (stereo not drawn), which “activity change, negative = inhibition” value is on record?
Answer: inactive: -2.76%

Question: With `CCOC(=O)c1ccc(Nc2cc(C)nc3ncnn23)cc1` as the compound, how does the “activity change, negative = inhibition” value read?
Answer: inactive: 13%

Question: Which Potency does the source give for `N#CCSc1nnc(-c2sc3ccccc3c2Cl)o1` here?
Answer: inconclusive: 3.16 µM [activator, single point]

Question: With `CCOC(=O)c1ccc(NC(=O)Cc2coc3cc4c(cc23)CCC4)cc1` as the compound, how does the “activity change, negative = inhibition” value read?
Answer: inactive: 15.3%

Question: Which Potency does the source give for `C=C1C(=O)[C@@]23[C@H](O)C[C@@H]4C(C)(C)CC[C@H](O)[C@]4(C)[C@@H]2C[C@H](O)[C@@H]1[C@H]3O` here?
Answer: active: 3.16 µM

Question: Which Potency does the source give for `O=[N+]([O-])c1ccc(N/N=C/c2cccc(O)c2O)c(S(=O)(=O)N2CCOCC2)c1` here?
Answer: inconclusive: 1.78 µM [activator, partial curve]

Question: Which Potency does the source give for `COc1ccc(N2CCN(C(=O)Cc3coc4cc(C)ccc34)CC2)cc1` here?
Answer: inconclusive: 35.5 µM [inhibitor, single point]

Question: With `CN1C=C/C(=C\c2cc[n+](C)c3ccccc23)c2ccccc21` as the compound, how does the Potency read?
Answer: active: 7.08 µM

Question: Which Potency does the source give for `c1ccc2c(c1)OCC(c1csc3ncnc(N4CCCC4)c13)O2` (stereo not drawn) here?
Answer: active: 17.8 µM

Question: Which Potency does the source give for `O=C(Nc1ccc(OC(F)(F)F)cc1)C1CCCN(S(=O)(=O)c2cccnc2)C1` (stereo not drawn) here?
Answer: inconclusive: 17.8 µM [inhibitor, single point]

Question: Which activity change, negative = inhibition does the source give for `CN(CC(=O)Nc1ccc(N2CCOCC2)cc1)CC(=O)Nc1ccc(N2CCOCC2)cc1` here?
Answer: inactive: -23.8% [at 9.22 µM]

Question: For `Cc1nc2c(Cl)cc(Cl)cc2[nH]1`, which Potency is on record?
Answer: inconclusive: 20 µM [inhibitor, single point]

Question: With `Clc1ccc(C2CC(c3ccccc3)Nc3ncnn32)cc1` (stereo not drawn) as the compound, how does the “activity change, negative = inhibition” value read?
Answer: inactive: -14.3%

Question: Which Potency does the source give for `CCOC(=O)C1=CN(c2cccc(F)c2)C=C(C(=O)OCC)C1c1cc(OC)c(O)c([N+](=O)[O-])c1` here?
Answer: inconclusive: 25.1 µM [inhibitor, single point]

Question: With `O=C(CNC(=O)c1cccc(F)c1)N/N=C/c1cc(Br)ccc1OC(=O)/C=C/c1ccco1` as the compound, how does the Potency read?
Answer: active: 8.91 µM

Question: Which Potency does the source give for `CCCOc1ccc(C(O)(CCC)CCN2CCCCC2)cc1` (stereo not drawn) here?
Answer: inconclusive: 25.1 µM [inhibitor, single point]

Question: For `CN1CCN(CC(=O)n2c3c(c4ccccc42)CCCC3)CC1`, which “activity change, negative = inhibition” value is on record?
Answer: inactive: 10.5%

Question: For `COc1ccc(-c2nn(-c3ccccc3)cc2/C=N/Nc2ccc3ccccc3n2)cc1OC`, which Potency is on record?
Answer: inconclusive: 35.5 µM [inhibitor, single point]

Question: For `COc1cc2c(cc1OC)/C(=C/c1ccc(Cl)cc1)C(=O)OC2`, which Potency is on record?
Answer: inconclusive: 11.2 µM [activator, partial curve]

Question: With `Cc1nnc(NC(=O)c2cccc(S(=O)(=O)N3CCc4ccccc43)c2)s1` as the compound, how does the Potency read?
Answer: inconclusive: 0.631 µM [inhibitor, full curve]

Question: For `O=C(Nc1cc(=O)c2ccccc2o1)N1CCCCC1`, which Potency is on record?
Answer: inconclusive: 35.5 µM [inhibitor, single point]

Question: For `CN(C)c1ccc(C(CNS(=O)(=O)c2ccc(F)cc2)c2c[nH]c3ccccc23)cc1` (stereo not drawn), which “activity change, negative = inhibition” value is on record?
Answer: inactive: -19.7%

Question: For `O=C(NC1CCCCCCC1)c1cc(COc2ccc3ncccc3c2)on1`, which Potency is on record?
Answer: active: 3.16 µM

Question: Which Potency does the source give for `CN1C(=O)/C(=C/c2cn(CC(=O)N3CCCCC3)c3ccccc23)c2ccccc21` here?
Answer: inconclusive: 35.5 µM [inhibitor, single point]

Question: For `CC1=NN(/C(=N\c2nnc(C)s2)Nc2ccc(C(C)(C)C)cc2)[C@H](c2ccc(C)cc2)S1`, which Potency is on record?
Answer: inconclusive: 11.2 µM [inhibitor, single point]

Question: For `CC(C)(C)C(=O)/C(=C\c1ccc([N+](=O)[O-])cc1)n1cncn1`, which Potency is on record?
Answer: active: 5.01 µM

Question: For `CC1Cc2ccccc2N1S(=O)(=O)c1cccc(C(=O)c2nccn2C)c1` (stereo not drawn), which Potency is on record?
Answer: inconclusive: 35.5 µM [inhibitor, single point]

Question: For `O=C(CO/N=C/c1ccc2c(c1)OCO2)Nc1cccc(Br)c1`, which Potency is on record?
Answer: inconclusive: 12.6 µM [inhibitor, single point]

Question: Which Potency does the source give for `CN(C)c1ccc(NC(=O)CSc2nc(N)c(C(=O)Nc3ccc(N(C)C)cc3)s2)cc1` here?
Answer: inconclusive: 14.1 µM [activator, partial curve]

Question: For `COc1ccc(-c2c(NC(=O)c3ccco3)n(-c3ccccc3)nc(C)c2=O)cc1`, which activity change, negative = inhibition is on record?
Answer: inactive: 5.3% [at 9.22 µM]

Question: For `CN(C)S(=O)(=O)c1ccc(C(=O)Nc2nnc(-c3ccc4c(c3)CCCC4)o2)cc1`, which Potency is on record?
Answer: inconclusive: 11.2 µM [inhibitor, partial curve]

Question: Which “activity change, negative = inhibition” value does the source give for `O=C(CSCc1cccc(Br)c1)N=Nc1c(O)[nH]c2ccccc12` here?
Answer: inactive: -0.623%

Question: For `Nc1nonc1C(=O)NCCNCc1cc(Br)ccc1OCc1ccc(F)cc1`, which Potency is on record?
Answer: inconclusive: 8.91 µM [inhibitor, partial curve]

Question: Which Potency does the source give for `Cc1ccc(S(=O)(=O)NCc2nnc(SCC(=O)Nc3cccc(C)c3C)n2C)cc1` here?
Answer: inconclusive: 1.12 µM [inhibitor, full curve, poor fit]

Question: For `Cc1c(C(=O)NCCc2ccccc2)oc2ccc(S(=O)(=O)N3CCC4(CC3)OCCO4)cc12`, which Potency is on record?
Answer: inconclusive: 35.5 µM [inhibitor, single point]

Question: Which Potency does the source give for `CC(Nc1ccc(Cl)cc1)c1cc(Cl)ccc1O` (stereo not drawn) here?
Answer: inconclusive: 35.5 µM [inhibitor, single point]

Question: With `Cc1cc(CC(C)C)n(-c2nc3ccccc3c(=O)n2OCC(N)=O)n1` as the compound, how does the Potency read?
Answer: inconclusive: 3.98 µM [inhibitor, partial curve, poor fit]

Question: With `Cc1ccc(Cl)cc1N1CCN(Cc2nc3c(c(=O)[nH]c(=O)n3C)n2Cc2ccccc2F)CC1` as the compound, how does the Potency read?
Answer: inconclusive: 35.5 µM [inhibitor, single point]

Question: For `Cc1cc(Nc2ccc3c(c2)OCCO3)c2cc(Cl)ccc2n1`, which Potency is on record?
Answer: inconclusive: 22.4 µM [inhibitor, partial curve]

Question: Which Potency does the source give for `COCCn1c(SCC(=O)c2ccc3c(c2)OCCO3)nnc1-c1ccoc1C` here?
Answer: inconclusive: 35.5 µM [inhibitor, single point]

Question: With `CCc1ccc(-c2csc3[n+]2CCN3C(C)=O)cc1` as the compound, how does the Potency read?
Answer: inconclusive: 22.4 µM [activator, partial curve]

Question: Which “activity change, negative = inhibition” value does the source give for `CCNC(=O)c1c(NC(=O)C2COc3ccccc3O2)sc2c1CCCC2` (stereo not drawn) here?
Answer: inactive: -16%

Question: With `Cc1[nH]c(=O)[nH]c(=O)c1S(=O)(=O)N1CCCC(C(=O)N2CCC(Cc3ccccc3)CC2)C1` (stereo not drawn) as the compound, how does the Potency read?
Answer: inconclusive: 0.562 µM [activator, partial curve, poor fit]

Question: Which Potency does the source give for `COc1cc(C2N(c3ccc(Cl)c(Cl)c3)C(=O)C3CCCN32)cc(OC)c1OC` (stereo not drawn) here?
Answer: inconclusive: 14.1 µM [inhibitor, single point]

Question: With `O=C(c1ccc2ccccc2c1)N1CCN(c2ccc(C(F)(F)F)cn2)CC1` as the compound, how does the Potency read?
Answer: inconclusive: 35.5 µM [inhibitor, single point]

Question: For `CCOC(=O)c1ccc(N2C(=O)CC(Nc3ccc(CCO)cc3)C2=O)cc1` (stereo not drawn), which Potency is on record?
Answer: inconclusive: 35.5 µM [inhibitor, single point]

Question: Which “activity change, negative = inhibition” value does the source give for `CCOc1cc(OCC)c(C(=O)CCC(=O)O)cc1OCC` here?
Answer: inactive: 20.7%

Question: Which Potency does the source give for `COc1ccc(C(=O)C/C(=C\C(=O)c2ccc(C)cc2)c2ccccc2)cc1` here?
Answer: inconclusive: 35.5 µM [inhibitor, single point]

Question: For `Cn1c(=O)[nH]c(=O)c2c1nc(N1CCCCC1)n2C/C=N/Nc1ccc(C(=O)O)cc1`, which activity change, negative = inhibition is on record?
Answer: inactive: 2.83% [at 9.22 µM]

Question: Which Potency does the source give for `COc1ccc(C(=O)CSc2nnc(CC(=O)Nc3ccccc3OC)n2C)cc1` here?
Answer: inconclusive: 35.5 µM [activator, single point]

Question: With `Cc1cccc(-c2nc(CSCC(=O)N3CCN(Cc4ccc5c(c4)OCO5)CC3)c(C)o2)c1` as the compound, how does the Potency read?
Answer: active: 10 µM

Question: For `Cc1ccc(-n2c(C)cc3c2CC(C)(C)CC3=O)cc1C`, which “activity change, negative = inhibition” value is on record?
Answer: inactive: 5.21%

Question: With `CSc1cccc(NC(=S)N2CCC(N(C)C3CCCCC3C)CC2)c1` (stereo not drawn) as the compound, how does the “activity change, negative = inhibition” value read?
Answer: inactive: -1.74%

Question: With `COc1cccc(Nc2nnc(SCc3cc([N+](=O)[O-])cc4c3OCOC4)s2)c1` as the compound, how does the Potency read?
Answer: inconclusive: 10 µM [inhibitor, partial curve]

Question: With `CCCCCn1c(SCCc2ccccc2)nc2c1c(=O)[nH]c(=O)n2C` as the compound, how does the “activity change, negative = inhibition” value read?
Answer: inactive: -7.38%

Question: Which Potency does the source give for `CCCc1cc(-n2cnc3ccccc32)n2c(nc3ccccc32)c1C#N` here?
Answer: inconclusive: 35.5 µM [activator, single point]

Question: Which “activity change, negative = inhibition” value does the source give for `O=C(O)C(Cc1ccccc1)n1cnnn1` (stereo not drawn) here?
Answer: inactive: 12.6%

Question: Which Potency does the source give for `O=[N+]([O-])c1ccccc1/C=C\C=N\N1CCN(c2ccccc2)CC1` here?
Answer: inconclusive: 11.2 µM [inhibitor, partial curve]

Question: Which Potency does the source give for `O=C(CNc1ccccc1)N/N=C/c1ccc([N+](=O)[O-])o1` here?
Answer: inconclusive: 35.5 µM [inhibitor, single point]

Question: For `C#CCn1c(=NC(=O)c2cc(Cl)sc2Cl)sc2cc(S(N)(=O)=O)ccc21`, which Potency is on record?
Answer: inconclusive: 8.91 µM [activator, partial curve, poor fit]

Question: For `Cc1cc2ccccn2c1C(=O)c1nc(NCc2ccco2)ncc1Cl`, which Potency is on record?
Answer: inconclusive: 1.26 µM [inhibitor, single point]

Question: Which “activity change, negative = inhibition” value does the source give for `CCc1c(C)nc2cc(-c3ccc(OC)c(OC)c3)nn2c1NCC1CC1` here?
Answer: inactive: -81.9%

Question: For `CCCCNC(=O)C1=C(N)C(C(=O)Nc2ccc(C)c(S(=O)(=O)N3CCCCC3)c2)SC1=Nc1ccc(C)cc1C` (stereo not drawn), which Potency is on record?
Answer: inconclusive: 15.8 µM [inhibitor, single point]

Question: For `Cc1cc(C)c2cc(CN(CCO)Cc3nnnn3Cc3ccc(F)cc3)c(=O)[nH]c2c1`, which “activity change, negative = inhibition” value is on record?
Answer: inactive: -8.92%
